Source: patent US20260001914A1, “MACROCYCLIC PEPTIDES TARGETING KRAS” (Merck Sharp & Dohme LLC, priority 2022, published 2026)
pEC50: −log10 of the molar value. At least one peptide structure holds a part that was inferred or is arguable (an end, a ring closure or a residue). At least one structure is not confirmed: it was looked up by name or label, or the drawing left a doubt. *1 amine or outer side, *2 acyl side, *3 side chain or, on linkers, in order; H or OH if unused. Where a SMILES comes first, the peptide text is derived from it. Bridges are numbered along the chain shown (N, C = ends). [ ]: non-standard residue; d: D form. cBu(1-CO,cis-3-CH2NH) = O=C([C@H]1C[C@@H](CN[*:1])C1)[*:2]; NMeNva(5-imidazol-1-yl) = CN[C@@H](CCCn1ccnc1)C(=O)O; X18 = CNC(=N)N(C)c1ccc(C[C@H](N[*:1])C(=O)[*:2])cc1; Ala(pyrimidin-5-yl) = N[C@@H](Cc1cncnc1)C(=O)O; NMe3Pal(6-Me) = CN[C@@H](Cc1ccc(C)nc1)C(=O)O; 1Nal = N[C@@H](Cc1cccc2ccccc12)C(=O)O; Phe(2-F) = N[C@@H](Cc1ccccc1F)C(=O)O; X68 = O=C(C(CCCC1COCCN1)N[*:1])[*:2]; NMe3Pal = CN[C@@H](Cc1cccnc1)C(=O)O; X1 = O=C(C12CC(CN[*:1])(C1)C2)[*:2]; NMeOrn(Me) = CNCCC[C@H](NC)C(=O)O; NMeR = CN[C@@H](CCCNC(=N)N)C(=O)O; NMeF = CN[C@@H](Cc1ccccc1)C(=O)O; 3Pal = N[C@@H](Cc1cccnc1)C(=O)O; 4Pal = N[C@@H](Cc1ccncc1)C(=O)O; Cba = N[C@@H](CC1CCC1)C(=O)O; dNle = CCCC[C@@H](N)C(=O)O; Nle = CCCC[C@H](N)C(=O)O

Chains of the proteins cited; added tags and fusions are not shown. Residues count along the entry.
UniProt P01116, 1-188 isoform P01116-2 G12D: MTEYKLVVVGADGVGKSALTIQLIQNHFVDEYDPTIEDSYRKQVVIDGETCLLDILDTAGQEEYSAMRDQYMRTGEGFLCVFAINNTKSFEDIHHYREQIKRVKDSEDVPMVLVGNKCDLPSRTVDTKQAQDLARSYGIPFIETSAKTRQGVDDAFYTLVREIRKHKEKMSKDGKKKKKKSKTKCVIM

These molecules were tested against KRAS-G12D protein (Homo sapiens, UniProt P01116, G12D) (assay: SOS-mediated nucleotide exchange assay (BODIPY-GDP / Tb-streptavidin TR-FRET)).
Type: biochemical

Q: With `CCCC[C@@H]1NC(=O)[C@H](Cc2cccnc2)NC(=O)[C@H](CCCNC(=N)N)N(C)C(=O)[C@H](Cc2ccccc2)NC(=O)[C@H]2C[C@@H](CNC(=O)[C@H](Cc3ccccc3)N(C)C(=O)[C@H](CCCC)NC(=O)[C@H](Cc3ccc(OC)cc3)NC1=O)C2` [compound 208, cyclo(F-NMeR-3Pal-Nle-TyrOMe-Nle-NMeF-c3amCb1c)] (cyclo(F[NMeR][3Pal][Nle]Y(Me)[Nle][NMeF][cBu(1-CO,cis-3-CH2NH)])) as the molecule, how does the pEC50 read?
A: 7.02

Q: How did the pEC50 turn out when `CCCC[C@@H]1NC(=O)[C@H](Cc2ccccc2F)NC(=O)[C@H](CC2CCC2)NC(=O)[C@H](Cc2cccnc2)NC(=O)C(CCCC2COCCN2)NC(=O)[C@H](Cc2ccccc2)NC(=O)C23CC(CNC(=O)[C@H](Cc4cccnc4)N(C)C1=O)(C2)C3` (some centres unmarked) [compound 112, cyclo(F-MorNva-3Pal-cBuA-Phe2F-Nle-NMe3Pal-amBCP)] (cyclo(F[X68][3Pal][Cba][Phe(2-F)][Nle][NMe3Pal][X1])) was run?
A: 6.36

Q: `CCCC[C@@H]1NC(=O)[C@H](Cc2ccc(N(C)C(=N)NC)cc2)NC(=O)[C@H](CCCNC)N(C)C(=O)[C@H](Cc2ccccc2)NC(=O)[C@H]2C[C@@H](CNC(=O)[C@H](Cc3ccc(C)nc3)N(C)C(=O)[C@H](CCCC)NC(=O)[C@H](Cc3ccc(OC)cc3)NC1=O)C2` [compound 359, cyclo(F-NMeOrMe-Phe4GnMeMe-Nle-TyrOMe-Nle-NMe3Pal4Me-c3amCblc)] (cyclo(F[NMeOrn(Me)][X18][Nle]Y(Me)[Nle][NMe3Pal(6-Me)][cBu(1-CO,cis-3-CH2NH)])) was tested. Which pEC50 did it give?
A: 5.94

Q: How did the pEC50 turn out when `CCCC[C@@H]1NC(=O)[C@H](Cc2cncnc2)NC(=O)[C@H](CCCNC(=N)N)NC(=O)[C@H](Cc2ccccc2)NC(=O)[C@H]2C[C@@H](CNC(=O)[C@H](Cc3ccccc3)N(C)C(=O)[C@H](CCCC)NC(=O)[C@H](Cc3ccc(OC)cc3)NC1=O)C2` [compound 355, cyclo(F-R-PyrimAla-Nle-TyrOMe-Nle-NMeF-c3amCb1c)] (cyclo(FR[Ala(pyrimidin-5-yl)][Nle]Y(Me)[Nle][NMeF][cBu(1-CO,cis-3-CH2NH)])) was run?
A: 6.80

Q: `CCCC[C@@H]1NC(=O)[C@H](Cc2ccc(O)cc2)NC(=O)[C@H](CC2CCC2)NC(=O)[C@H](Cc2ccncc2)NC(=O)[C@H](CCCNC(=N)N)NC(=O)[C@H](Cc2cccc3ccccc23)NC(=O)CSC[C@H](C(=O)O)NC(=O)[C@H](Cc2cccnc2)N(C)C1=O` [compound 324, cyclo(INal-R-4Pal-cBuA-Y-Nle-NMe3Pal-dC-ClAc)] ({CH2CO}-[1Nal]R[4Pal][Cba]Y[Nle][NMe3Pal][dC]-OH; thioether N-8) was tested. Which pEC50 did it give?
A: 7.67

Q: How did the pEC50 turn out when `CCCC[C@@H]1NC(=O)[C@H](Cc2cccnc2)NC(=O)CN(C)C(=O)[C@H](Cc2ccccc2)OC(=O)C23CC(CNC(=O)[C@H](Cc4cccnc4)N(C)C(=O)[C@H](CCCC)NC(=O)[C@H](Cc4ccccc4F)NC1=O)(C2)C3` (single isomer, unassigned) [compound 262, cyclo(FLac-Sar-3Pal-Nle-Phe2F-Nle-NMe3Pal-amBCP)] was run?
A: 5.34

Q: With `CCCC[C@@H]1NC(=O)[C@H](Cc2cccnc2)NC(=O)[C@H](CCCNC(=N)N)NC(=O)[C@H](Cc2ccccc2)NC(=O)[C@H]2C[C@@H](CNC(=O)[C@H](Cc3ccccc3)N(C)C(=O)[C@H](CCCC)NC(=O)[C@H](Cc3ccc(OC)cc3)NC1=O)C2` [compound 353, cyclo(F-R-3Pal-Nle-TyrOMe-Nle-NMeF-c3amCb1c)] (cyclo(FR[3Pal][Nle]Y(Me)[Nle][NMeF][cBu(1-CO,cis-3-CH2NH)])) as the molecule, how does the pEC50 read?
A: 6.56

Q: With `CCCC[C@@H]1NC(=O)[C@H](Cc2ccccc2F)NC(=O)[C@@H](CCCC)NC(=O)[C@H](Cc2cccnc2)NC(=O)[C@H](CCCn2ccnc2)N(C)C(=O)[C@H](Cc2ccccc2)N(C)C(=O)[C@H]2C[C@@H](CNC(=O)[C@H](Cc3cccnc3)N(C)C1=O)C2` [compound 248, cyclo(NMeF-NMeNvalmid-3Pal-dNle-Phe2F-Nle-NMe3Pal-c3amCblc)] (cyclo([3Pal][dNle][Phe(2-F)][Nle][NMe3Pal][cBu(1-CO,cis-3-CH2NH)][NMeF][NMeNva(5-imidazol-1-yl)])) as the molecule, how does the pEC50 read?
A: 5.83
